At least one structure is not confirmed: it was looked up by name or label, or the drawing left a doubt.
Biological target: EGFR double mutation L858R/T790M (H1975 cells) (Homo sapiens (Human), UniProt P00533, L858R/T790M)
Assay: Phospho-EGFR signaling (immunoblotting, 1 hr) in H1975 cells
Assay type: cell-based
Settings: signaling EC50 WT (A431) / H1975
Protocol: A431 human epidermoid carcinoma, H1975 human NSCLC and HCC827 human NSCLC adenocarcinoma cells were obtained from the American Type Culture Center (Manassas, Va.). A431 cells were grown in DMEM (Invitrogen, Carlsbad, Calif.) supplemented with 10% FBS (HyClone, South Logan, Utah) and 1% Penicillin-Streptomycin (P/S, Lonza, Walkersville, Md.).
All primary antibodies were obtained from Cell Signaling (Danvers, Mass.) and used at 1:1000. Secondary antibodies were used at 1:10,000. Goat anti-mouse IgG IRDye 800CW antibody was obtained from LiCor Biosciences (Lincoln, Nebr.) and goat anti-rabbit IgG Alexa Fluor 680 was obtained from Invitrogen.
Cells were grown in 12-well plates (Corning, Coring, N.Y.) to 90% confluence and then incubated in low-serum (0.1% FBS) media for 16-18 hr. […] A431 cells were then stimulated with 50 ng/ml EGF (Peprotech, Rocky Hill, N.J.) for 15 min. After treatment, cell monolayers were washed with cold PBS (Invitrogen) and immediately lysed by scrapping into 60 uL cold Cell Extraction Buffer (Invitrogen) supplemented with Complete Protease inhibitors (Roche, Indianapolis, Ind.) and PhosphoSTOP (Roche) phosphatase inhibitors.
Phospho-protein signals were quantitated using Odyssey Infrared Imaging (Li-Cor Biosciences).
To assess phosphor-EGFR signaling, blots were probed with rabbit anti-Phospho-EGFR (Y1068) and mouse total anti-EGFR antibodies. […]

C=CC(=O)Nc1cccc(Nc2nc(Nc3ccc(N4CCN(C(=O)CC)CC4)cc3OC)ncc2C(F)(F)F)c1 [Compound I-35, N-(3-(2-(2-methoxy-4-(4-propionylpiperazin-1-yl)phenylamino)-5-(trifluoromethyl)pyrimidin-4-ylamino)phenyl)acrylamide] was tested, and the “Ratio WT/mutant (H1975)” value was greater than 50.
